Measured values taken from the supplement of paper PMC4807443.
Counter-ions that a name gives are not always drawn. Some of the results follow. The numbers are fractions of the control, whatever unit the source prints. Most values lie at the level of the controls, where differences are scatter.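 A lentiviral reporter stably expressed in MIN6 mouse insulinoma beta cells uses Pdx1 and Ins1 promoters to drive separate nucleus-targeted fluorescent proteins; automated imaging with Hoechst nuclear stain counted cells. Possible hits were drugs shifting Ins1 promoter signal more than two median absolute deviations from DMSO controls, with Pdx1 activity roughly normal.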

Tested on: MIN6
Assay: % Pdx1+ Ins1+ (double-positive, mature) cells relative to DMSO control (fold of DMSO control); higher = more mature Ins1 promoter-active cells
Settings: 8.5 µM; 48 h; glucose 5 mM

SMILES	% Pdx1+ Ins1+
CN(C)[C@@H]1C(O)=C(C(=O)NCNCCCC[C@H](N)C(=O)O)C(=O)[C@@]2(O)C(O)=C3C(=O)c4c(O)cccc4[C@@](C)(O)[C@H]3C[C@@H]12 [Lymecycline]	1.11
CCCCNc1ccc(C(=O)OCCN(C)C)cc1 [Tetracaïne hydrochloride]	0.868
CCN(CC)CCOc1ccc(C(=C(Cl)c2ccccc2)c2ccccc2)cc1 [Clomiphene citrate (Z,E)]	0.865
CC(O)(P(=O)(O)O)P(=O)(O)O [Etidronic acid, disodium salt]	0.896
COc1ccccc1N1CCN(CCCCNC(=O)c2ccc3ccccc3c2)CC1	0.946
CCC1NC(=O)c2cc(S(N)(=O)=O)c(Cl)cc2N1 (stereo unspecified) [Quinethazone]	1.02
Cc1cnc(C(=O)NCCc2ccc(S(=O)(=O)NC(=O)NC3CCCCC3)cc2)cn1 [Glipizide]	1.07
O=C(O)CN(CCN(CC(=O)O)CC(=O)O)CCN(CC(=O)O)CC(=O)O [Pentetic acid]	1.04
C#CCN(C)CCCOc1ccc(Cl)cc1Cl [Clorgyline hydrochloride]	0.903
CC(C)NCC(O)c1cc(O)cc(O)c1 (stereo unspecified) [Metaproterenol sulfate, orciprenaline sulfate]	0.862
Cn1c(=O)c2c(ncn2CCO)n(C)c1=O [Etofylline]	1.03
COc1ccccc1N1CCN(CCCNc2cc(=O)n(C)c(=O)n2C)CC1 [Urapidil hydrochloride]	0.911
CCN(CC)Cc1cc(Nc2ccnc3cc(Cl)ccc23)ccc1O [Amodiaquin dihydrochloride dihydrate]	1.08
O=C(/C=C/C=C/c1ccc2c(c1)OCO2)N1CCCCC1 [Piperine]	1.01
CCC(=O)OCC(=O)[C@@]1(OC(=O)CC)[C@@H](C)C[C@H]2[C@@H]3CCC4=CC(=O)C=C[C@]4(C)[C@@]3(Cl)[C@@H](O)C[C@@]21C [Beclomethasone dipropionate]	0.934
CC1(C)S[C@@H]2[C@H](NC(=O)Cc3ccccc3)C(=O)N2[C@H]1C(=O)O [Benzylpenicillin sodium]	0.936
CC1(C)S[C@@H]2[C@H](NC(=O)Cc3ccccc3)C(=O)N2[C@H]1C(=O)O [Benzathine benzylpenicillin]	0.86
CCN(CC)CCNC(=O)COc1ccc(OC)cc1 [Mefexamide hydrochloride]	0.881
Clc1ccc(C(Cn2ccnc2)OCc2csc3c(Cl)cccc23)c(Cl)c1 (stereo unspecified) [Sertaconazole nitrate]	0.845
CC(=O)OCC1=C(C(=O)O)N2C(=O)[C@@H](NC(=O)Cc3cccs3)[C@H]2SC1 [Cephalothin sodium salt]	0.902
O=C1CCC(N2C(=O)c3ccccc3C2=O)C(=O)N1 (stereo unspecified) [Thalidomide]	1.07
CNCCCN1c2ccccc2CCc2ccccc21 [Desipramine hydrochloride]	0.745
O=C(O)[C@]1(O)C[C@@H](O)[C@@H](O)[C@H](O)C1 [Quinic acid]	1.06
O=C1OC(CN2CCOCC2)CN1/N=C/c1ccc([N+](=O)[O-])o1 (stereo unspecified) [Furaltadone hydrochloride]	0.871

SMILES	% Pdx1+ Ins1+
Cc1cccc(Nc2ccccc2C(=O)O)c1C [Mefenamic acid]	1.14
C[n+]1ccccc1/C=N/O [Pralidoxime chloride]	0.935
CN1CCC(OC(c2ccccc2)c2ccccc2)CC1 [Diphenylpyraline hydrochloride]	0.873
CN(C)CCCN1c2ccccc2CCc2ccccc21 [Imipramine hydrochloride]	1.02
NC(CO)C(=O)NNCc1ccc(O)c(O)c1O (stereo unspecified) [Benserazide hydrochloride]	0.968
NCCC[C@H](N)CC(=O)N[C@H]1CNC(=O)[C@H]([C@H]2C[C@H](O)NC(N)=N2)NC(=O)/C(=C/NC(N)=O)NC(=O)[C@H](CO)NC(=O)[C@H](CO)NC1=O [Viomycin sulfate]	0.865
Fc1ccc([C@@H]2CCNC[C@H]2COc2ccc3c(c2)OCO3)cc1 [Paroxetine Hydrochloride]	0.949
NCC[C@H](O)C(=O)N[C@@H]1C[C@H](N)[C@@H](O[C@H]2O[C@H](CN)[C@@H](O)[C@H](O)[C@H]2O)[C@H](O)[C@H]1O[C@H]1O[C@H](CO)[C@@H](O)[C@H](N)[C@H]1O [Amikacin hydrate]	1.02
Cn1cnc([N+](=O)[O-])c1Sc1ncnc2[nH]cnc12 [Azathioprine]	0.983
COc1c2c(nc3ccccc13)OC(C(C)(O)CO)C2 (stereo unspecified) [Dubinidine]	0.992
CC(C)C(=O)Nc1ccc([N+](=O)[O-])c(C(F)(F)F)c1 [Flutamide]	0.975
CC1COc2c(N3CCN(C)CC3)c(F)cc3c(=O)c(C(=O)O)cn1c23 (stereo unspecified) [Ofloxacin]	1.14
O=C(O)CCCC[C@@H]1SC[C@@H]2NC(=O)N[C@@H]21 [Biotin]	0.97
COCC(=O)Nc1c(I)c(C(=O)NCC(O)CO)c(I)c(C(=O)N(C)CC(O)CO)c1I (stereo unspecified) [Iopromide]	0.947
C[C@@]1(O)CCOC(=O)C1 [Mevalonic-D, L acid lactone]	0.801
COC(=O)C1=C(C)NC(C)=C(C(=O)OC(C)C)C1c1cccc2nonc12 (stereo unspecified) [Isradipine]	0.791
C[C@H](CCC(=O)O)[C@H]1CC[C@H]2[C@@H]3CC[C@@H]4C[C@H](O)CC[C@]4(C)[C@H]3CC[C@]12C [Lithocholic acid]	0.73
CC(=O)SCC(Cc1ccccc1)C(=O)NCC(=O)OCc1ccccc1 (stereo unspecified) [Racecadotril]	0.988
Nc1nc(N)c2nc(-c3ccccc3)c(N)nc2n1 [Triamterene]	0.887
C=C1CC[C@H](O)C/C1=C/C=C1\CCC[C@]2(C)[C@@H]([C@H](C)/C=C/[C@H](C)C(C)C)CC[C@@H]12 [Calciferol]	1.21
CC(C)(C)NC(=O)[C@H]1CC[C@H]2[C@@H]3CC[C@H]4NC(=O)C=C[C@]4(C)[C@H]3CC[C@]12C [Finasteride]	0.771
CN1[C@@H]2CC[C@H]1C[C@@H](OC(=O)C(O)c1ccccc1)C2 (mixture of isomers) [Homatropine hydrobromide (R,S)]	1.04
CC(C)(C)CC(C)(C)c1ccc(OCCOCC[N+](C)(C)Cc2ccccc2)cc1 [Benzethonium chloride]	0.0633
CCCCOc1ccc(C(=O)CCN2CCCCC2)cc1 [Dyclonine hydrochloride]	1.19

SMILES	% Pdx1+ Ins1+
C=C1C(=O)O[C@H]2[C@H]1CC/C(C)=C/CC[C@@]1(C)O[C@@H]21 [Parthenolide]	0.778
CC(CN(C)C)CN1c2ccccc2CCc2ccccc21 (stereo unspecified) [Trimipramine maleate salt]	1.06
COC(=O)[C@H]1[C@H]2C[C@H]3c4[nH]c5ccccc5c4CCN3C[C@H]2CC[C@@H]1O [Rauwolscine hydrochloride]	0.877
CC(C)NCC(O)COc1cccc2[nH]ccc12 (stereo unspecified) [Pindolol]	1.01
OC(CCN1CCCC1)(c1ccccc1)C1CCCCC1 (stereo unspecified) [Procyclidine hydrochloride]	0.938
Nc1ncnc2c1ncn2[C@@H]1O[C@@H]2COP(=O)(O)O[C@H]2[C@H]1O [(-)-Adenosine 3',5'-cyclic monophosphate]	1.06
C[C@H]1[C@H]2CC[C@H]3[C@@H]4CC=C5C[C@@H](N(C)C)CC[C@]5(C)[C@H]4CC[C@]23CN1C [Conessine]	1.1
C[C@H](CS)C(=O)N1CCC[C@H]1C(=O)O [Captopril]	1.02
CC1(C)O[C@@H]2C[C@H]3[C@@H]4C[C@H](F)C5=CC(=O)C=C[C@]5(C)[C@H]4[C@@H](O)C[C@]3(C)[C@]2(C(=O)CO)O1 [Flunisolide]	0.855
CC1O[C@H](O[C@]2(O[C@H]3CC[C@@]4(C)C(=CC[C@H]5[C@@H]6C[C@H]7[C@H]([C@H](C)[C@H]8CC[C@H](C)CN87)[C@@]6(C)CC[C@@H]54)C3)C[C@@H](O[C@@H]3OC(CO)[C@@H](O)[C@@H](O)C3O)[C@@H](O)C(CO)O2)C(O)[C@@H](O)[C@H]1O (stereo partly drawn) [Solanine alpha]	0.761
CC[C@H](c1ccc(O)cc1)[C@@H](CC)c1ccc(O)cc1 [Hexestrol]	0.882
Cc1c(Nc2ncccc2C(=O)O)cccc1C(F)(F)F [Flunixin meglumine]	0.957
NNC(=O)c1ccncc1 [Isoniazid]	1.12
CC1(C)O[C@@H]2C[C@H]3[C@@H]4C[C@H](F)C5=CC(=O)CC[C@]5(C)[C@H]4[C@@H](O)C[C@]3(C)[C@]2(C(=O)CO)O1 [Flurandrenolide]	0.886
O=c1[nH]c(=O)n([C@H]2C[C@H](O)[C@@H](CO)O2)cc1I [Idoxuridine]	1.14
Cc1cccc(N(C)C(=S)Oc2ccc3ccccc3c2)c1 [Tolnaftate]	1.07
O=C(O)c1cccnc1 [Niacin]	0.9
CCCCc1oc2ccccc2c1C(=O)c1cc(I)c(OCCN(CC)CC)c(I)c1 [Amiodarone hydrochloride]	0.879
CCN1CCCC1CNC(=O)c1cc(S(N)(=O)=O)ccc1OC (stereo unspecified) [Sulpiride]	1.07
CC12CC3CC(C)(C1)CC(N)(C3)C2 [Memantine Hydrochloride]	0.88
O=C(Nc1ccc([N+](=O)[O-])cc1Cl)c1cc(Cl)ccc1O [Niclosamide]	1.07
CCOc1ccc(Cc2nccc3cc(OCC)c(OCC)cc23)cc1OCC [Ethaverine hydrochloride]	1
C#C[C@]1(O)CC[C@H]2[C@@H]3CCC4=Cc5oncc5C[C@]4(C)[C@H]3CC[C@@]21C [Danazol]	1.08
